Data reported in patent US20260183262A1, “RNA-BINDING MOTIF PROTEIN 39 (RBM39) DEGRADERS FOR TREATMENT OF CANCERS” (RECURSION PHARMACEUTICALS, INC., priority 2022, published 2026).
Some results were stated once for a whole list of compounds, not compound by compound.

System: OV0273 PDX model
Assay: Efficacy of E7820 in BRCA-proficient ovarian cancer OV0273 PDX model
Assay type: in vivo, mouse
Conditions: E7820 85 mg/kg, olaparib 90 mg/kg, p<0.0001 vs vehicle and olaparib groups
Description: • Tumor Inoculation: Study was conducted at Crown Biosciences in China. Tumor fragments from stock mice were harvested and used for inoculation into mice. Each mouse was inoculated subcutaneously in the right upper flank with primary human ovarian tumor xenograft model OV0273 tumor fragment (2-3 mm in diameter) for tumor development. • Randomization: The randomization started from when the mean tumor size reaches approximately 149 mm^3 and female 40 BALB/c Nude mice were enrolled in the study. All animals were randomly allocated to 4 study groups. Randomization was performed based on “Matched distribution” method. The date of randomization was denoted as day 0. • Tumor Growth Inhibition (TGI): Tumor Growth Inhibition (TGI): Methods of TGI are known in the art. Tumor volumes were measured three per week after randomization in two dimensions using a caliper, and the volume was expressed in mm^3 using the formula: V=(L×W×W)/2, where Vis tumor volume, L is tumor length (the longest tumor dimension) and W is tumor width (the longest tumor dimension perpendicular to L). % TGI was calculated using the formula % TGI=(TV vehicle−TV treatment)/(TV vehicle−TV initial)*100 for all mice (Wong, H, et al. Clin Cancer Res., 2012, 18(14): 3846-3855) • Treatment Arms: 10 mice per arm were treated with either Vehicle, olaparib, E7820, or E7820 plus olaparib, for 28 days. […]

Cc1ccc(NS(=O)(=O)c2cccc(C#N)c2)c2[nH]cc(C#N)c12 [Compound E7820]
median survival time: > 70 days
